The results in this text go back to PMC3760768.

Amino acid sequences for entries named in this document (tags omitted).
UniProt Q39057: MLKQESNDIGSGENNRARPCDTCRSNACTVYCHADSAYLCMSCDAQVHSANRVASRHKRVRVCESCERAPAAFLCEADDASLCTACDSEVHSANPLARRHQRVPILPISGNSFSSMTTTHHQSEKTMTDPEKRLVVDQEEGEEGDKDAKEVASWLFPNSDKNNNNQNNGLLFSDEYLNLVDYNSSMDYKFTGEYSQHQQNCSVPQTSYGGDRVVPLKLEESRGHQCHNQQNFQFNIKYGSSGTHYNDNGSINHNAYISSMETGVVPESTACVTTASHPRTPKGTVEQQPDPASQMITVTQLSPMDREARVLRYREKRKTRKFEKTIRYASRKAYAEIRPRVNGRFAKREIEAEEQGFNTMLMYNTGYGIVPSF

These are yes or no findings as the source states them, for the method shown. Where a sequence is shown, tags or fusion partners need not be part of it.

The target of the experiment is T1, AGL18, full length, fused with GAL4-BD (Arabidopsis) (UniProt Q9M2K8).
T1 sequence: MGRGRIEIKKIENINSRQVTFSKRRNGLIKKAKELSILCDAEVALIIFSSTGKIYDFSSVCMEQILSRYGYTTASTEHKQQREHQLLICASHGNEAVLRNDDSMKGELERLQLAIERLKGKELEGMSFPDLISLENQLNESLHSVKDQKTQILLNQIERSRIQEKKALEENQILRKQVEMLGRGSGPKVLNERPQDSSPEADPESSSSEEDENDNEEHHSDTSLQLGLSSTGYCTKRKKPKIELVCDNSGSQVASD
The experiment in a line: two-hybrid; Matchmaker GAL4 Two-Hybrid System 3 (Clontech), yeast strain AH109; growth on selective media lacking leucine, tryptophan and histidine.

With “CONSTANS (CO), full length, fused with GAL4-AD (from UniProt Q39057 1-373)”, the binding entry is recorded as “no binding”.
